PubChem BioAssay AID1508597 – Cure First – 2020

Purpose: 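Genes whose silencing sensitises or protects ovarian cancer cells against rucaparib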 (primary screen)
Cell system: human ovarian carcinoma lines grown from tumours: OCI-P5x (papillary serous) and OCI-C5x (clear cell)
Reagent: siRNA pool against human genes, 1.25 pmol siRNA per well
Timing: 72 h or 96 h, depending on the cell culture
Treatment: rucaparib 20 µM (about IC30) or vehicle, present until read-out
Rucaparib or vehicle: Vehicle
Cell line: OCI-C5x (clear cell)
Read-out: 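Luminescent ATP-based viability assay read 72 or 96 h after transfection, depending on culture, given as normalised percent viability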
Reading the numbers: viability, normalised: higher = more viable cells remaining
Call rule: 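Active when normalised viability falls below 80 percent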
Calls: active = viability under 80%; inactive = viability 80% or more
Shown is a random part of the about 2,100 reagents, under one of the conditions tested. 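Calls flag viability under 80% in either arm, not effects specific to rucaparib; the reference for percent is not stated.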 Unmarked entries are inactive. Not given: the 100% reference.

SMAD4, technical replicate 1: viability, normalised (%) = 26.8 (active)
SMAD4, technical replicate 2: viability, normalised (%) = 20.5 (active)
SMAD4, technical replicate 3: viability, normalised (%) = 20.4 (active)
SCYL2, technical replicate 1: viability, normalised (%) = 60.3 (active)
SCYL2, technical replicate 2: viability, normalised (%) = 55 (active)
SCYL2, technical replicate 3: viability, normalised (%) = 45.9 (active)
COPRS, technical replicate 1: viability, normalised (%) = 39.9 (active)
COPRS, technical replicate 2: viability, normalised (%) = 74.7 (active)
COPRS, technical replicate 3: viability, normalised (%) = 37.5 (active)
CMPK1, technical replicate 1: viability, normalised (%) = 69.8 (active)
CMPK1, technical replicate 2: viability, normalised (%) = 59.6 (active)
CMPK1, technical replicate 3: viability, normalised (%) = 48.9 (active)

No new results follow: an excerpt of the list.
COPRS, technical replicate 1: viability, normalised (%) = 39.9 (active)
COPRS, technical replicate 2: viability, normalised (%) = 74.7 (active)
